## Screening data, single-dose tests

Protein sequences, listed by entry. Tags and fused reporters are not part of them. Residues count along the entry.
UniProt P9WPC5, whole entry: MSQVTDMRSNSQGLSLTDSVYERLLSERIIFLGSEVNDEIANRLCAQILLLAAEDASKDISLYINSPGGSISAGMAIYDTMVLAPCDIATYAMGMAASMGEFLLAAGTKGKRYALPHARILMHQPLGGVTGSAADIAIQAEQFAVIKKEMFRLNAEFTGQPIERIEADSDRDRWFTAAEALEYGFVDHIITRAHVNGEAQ
UniProt P9WPC3, whole entry partner: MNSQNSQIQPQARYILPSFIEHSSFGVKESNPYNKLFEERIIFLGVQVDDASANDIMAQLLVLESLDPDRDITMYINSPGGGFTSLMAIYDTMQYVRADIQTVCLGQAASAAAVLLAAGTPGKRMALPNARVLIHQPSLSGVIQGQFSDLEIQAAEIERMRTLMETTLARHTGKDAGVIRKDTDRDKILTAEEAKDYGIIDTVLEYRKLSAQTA
UniProt Q4DA54, 1-478: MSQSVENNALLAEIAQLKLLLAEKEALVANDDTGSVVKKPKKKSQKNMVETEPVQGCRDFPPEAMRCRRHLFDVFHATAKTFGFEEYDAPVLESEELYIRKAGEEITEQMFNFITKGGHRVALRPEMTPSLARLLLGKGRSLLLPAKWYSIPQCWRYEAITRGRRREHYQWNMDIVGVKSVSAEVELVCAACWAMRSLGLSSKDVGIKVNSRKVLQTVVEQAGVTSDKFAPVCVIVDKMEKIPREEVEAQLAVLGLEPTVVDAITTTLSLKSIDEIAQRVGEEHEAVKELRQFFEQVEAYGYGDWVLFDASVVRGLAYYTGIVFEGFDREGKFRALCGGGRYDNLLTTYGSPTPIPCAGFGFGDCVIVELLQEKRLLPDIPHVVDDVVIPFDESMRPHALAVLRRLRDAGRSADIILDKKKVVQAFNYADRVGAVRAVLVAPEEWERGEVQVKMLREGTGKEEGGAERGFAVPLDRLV
UniProt I6X8D2, whole entry: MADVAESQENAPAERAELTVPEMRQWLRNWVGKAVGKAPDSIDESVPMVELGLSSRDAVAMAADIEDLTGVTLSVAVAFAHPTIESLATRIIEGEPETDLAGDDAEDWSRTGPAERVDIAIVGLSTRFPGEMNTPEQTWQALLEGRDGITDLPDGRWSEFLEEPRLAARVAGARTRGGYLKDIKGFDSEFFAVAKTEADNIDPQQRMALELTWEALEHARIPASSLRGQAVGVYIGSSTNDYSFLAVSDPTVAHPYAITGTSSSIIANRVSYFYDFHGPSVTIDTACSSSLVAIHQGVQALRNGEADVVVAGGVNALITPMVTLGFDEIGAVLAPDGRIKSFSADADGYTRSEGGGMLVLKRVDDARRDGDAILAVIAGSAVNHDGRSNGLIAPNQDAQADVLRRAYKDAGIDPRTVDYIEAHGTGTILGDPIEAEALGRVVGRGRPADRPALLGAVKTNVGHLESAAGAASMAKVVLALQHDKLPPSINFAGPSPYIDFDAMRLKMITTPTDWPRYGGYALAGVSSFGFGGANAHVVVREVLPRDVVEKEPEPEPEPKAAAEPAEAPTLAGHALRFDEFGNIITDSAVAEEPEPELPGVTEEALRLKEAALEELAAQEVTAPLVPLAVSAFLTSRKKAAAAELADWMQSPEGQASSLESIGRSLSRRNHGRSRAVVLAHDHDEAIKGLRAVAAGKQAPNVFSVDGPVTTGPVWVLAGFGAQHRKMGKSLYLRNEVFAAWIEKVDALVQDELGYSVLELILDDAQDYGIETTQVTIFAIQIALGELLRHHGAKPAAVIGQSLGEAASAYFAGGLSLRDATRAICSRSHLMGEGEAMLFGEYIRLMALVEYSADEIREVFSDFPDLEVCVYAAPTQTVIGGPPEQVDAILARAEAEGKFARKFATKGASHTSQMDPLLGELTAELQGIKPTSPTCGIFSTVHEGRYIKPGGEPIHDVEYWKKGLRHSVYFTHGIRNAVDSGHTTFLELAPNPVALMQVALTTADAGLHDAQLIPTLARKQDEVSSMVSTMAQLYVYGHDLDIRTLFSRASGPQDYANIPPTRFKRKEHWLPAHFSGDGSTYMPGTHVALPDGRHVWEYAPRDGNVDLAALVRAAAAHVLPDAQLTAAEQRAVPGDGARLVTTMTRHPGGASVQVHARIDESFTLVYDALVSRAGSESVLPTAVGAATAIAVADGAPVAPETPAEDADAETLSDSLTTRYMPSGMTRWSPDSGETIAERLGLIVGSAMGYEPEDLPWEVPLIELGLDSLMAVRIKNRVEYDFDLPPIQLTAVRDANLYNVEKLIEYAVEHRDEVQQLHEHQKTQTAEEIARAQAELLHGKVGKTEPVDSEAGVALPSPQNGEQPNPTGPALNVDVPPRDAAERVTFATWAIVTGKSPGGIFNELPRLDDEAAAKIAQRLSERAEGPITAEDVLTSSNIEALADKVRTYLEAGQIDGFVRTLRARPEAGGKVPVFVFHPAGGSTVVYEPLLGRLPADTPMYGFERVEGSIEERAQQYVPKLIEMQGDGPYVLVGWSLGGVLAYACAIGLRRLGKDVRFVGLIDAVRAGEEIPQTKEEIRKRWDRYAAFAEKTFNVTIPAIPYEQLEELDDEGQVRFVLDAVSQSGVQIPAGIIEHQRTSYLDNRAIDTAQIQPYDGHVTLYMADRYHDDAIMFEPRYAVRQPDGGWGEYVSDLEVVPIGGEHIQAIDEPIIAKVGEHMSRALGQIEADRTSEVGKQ
UniProt Q8IDJ8, 1-583: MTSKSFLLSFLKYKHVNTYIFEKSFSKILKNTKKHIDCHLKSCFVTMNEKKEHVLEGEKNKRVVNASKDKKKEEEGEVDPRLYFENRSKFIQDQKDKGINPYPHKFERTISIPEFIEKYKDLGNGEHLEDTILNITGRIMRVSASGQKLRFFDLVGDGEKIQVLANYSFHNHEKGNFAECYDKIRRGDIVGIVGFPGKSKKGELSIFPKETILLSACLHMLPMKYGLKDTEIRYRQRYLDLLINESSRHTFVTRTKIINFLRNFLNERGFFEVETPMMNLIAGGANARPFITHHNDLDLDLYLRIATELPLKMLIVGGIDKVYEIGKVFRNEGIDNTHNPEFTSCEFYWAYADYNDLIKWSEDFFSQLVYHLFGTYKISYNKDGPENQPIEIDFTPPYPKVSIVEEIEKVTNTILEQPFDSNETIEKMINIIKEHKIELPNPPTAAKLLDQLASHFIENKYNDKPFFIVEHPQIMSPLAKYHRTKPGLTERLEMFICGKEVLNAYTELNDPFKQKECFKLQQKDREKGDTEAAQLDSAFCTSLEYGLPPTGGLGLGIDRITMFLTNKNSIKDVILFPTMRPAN

Results are given as percent effect. How 0% and 100% were set is not recorded. Most values in the screen are low, and negative values occur. Compounds were drawn at random from those tested, without regard to their results. A dash means the value is not listed here; it may have been measured.

ClpP1P2: 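Protease assay of ClpP1P2, read by the AMC dye that it sets free. Target: ClpP1P2, Mycobacterium tuberculosis (UniProt P9WPC5 and UniProt P9WPC3). Concentration: 50 µM. Higher reads as stronger inhibition, judged from the few compounds that gave an IC50. Most other retested compounds had strongly negative values. Size under these conditions: about 69,000 compounds, about 10 of them at 50% or above in at least one test.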
Toxoplasma: 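Assay of Toxoplasma gondii numbers, read through their beta-galactosidase reporter with a colour substrate. Tested at 10 µM. The record gives no direction; the compounds picked for IC50 retests had high values, so higher reads as fewer parasites. Size under these conditions: about 67,000 compounds, about 260 of them at 50% or above in at least one test.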
TcHisRS: 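Enzyme assay of histidyl-tRNA synthetase; the read-out is not stated. Target: Histidine-tRNA ligase, Trypanosoma cruzi CL Brener (UniProt Q4DA54). Tested at 30 µM. Direction is inferred from retests: higher values go with stronger inhibition. Size under these conditions: about 69,000 compounds, about 31 of them at 50% or above in at least one test.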
Pks13 thioesterase: 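Enzyme assay of the thioesterase domain of polyketide synthase 13; the read-out is not stated. Target: Polyketide synthase Pks13, Mycobacterium tuberculosis (UniProt I6X8D2). Tested at 30 µM. Higher reads as stronger inhibition (inferred from which compounds were picked for retests). About 67,000 compounds were tested under these conditions; 0.46% (about 300) showed 50% or more at least once.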
PfKRS1: 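Enzyme assay of the cytosolic lysyl-tRNA synthetase in 384-well plates, read by luminescence. Target: Lysine-tRNA ligase, Plasmodium falciparum 3D7 (UniProt Q8IDJ8). Tested at 30 µM. Direction is inferred from only a few compounds that gave an IC50; most scored high, so higher reads as stronger inhibition. Of about 69,000 compounds tested this way, about 49 (0.071%) reached 50% or more in at least one test.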

structure,ClpP1P2,Toxoplasma,TcHisRS,Pks13 thioesterase,PfKRS1
CCN(CC1CCCN(CCc2cccc(OC)c2)C1)C(=O)CN(C)C (stereo unspecified),-4.131,-5.243,6.383,-3.974,4.796
CCC(CC)C(=O)NC1CCCc2nc(N3CCOCC3)ncc21 (stereo unspecified),2.306,-5.545,7.447,11.74,3.351
CCCOCC1CCN(C(=O)c2cnc(-c3cccnc3)nc2O)C1 (stereo unspecified),0.8059,-40.44,5.6,-5.311,10.5
O=C1[C@@H]2CCN(Cc3ccoc3)C[C@@H]2OCCN1Cc1cccc(F)c1,-10.02,-,2.956,-23.2,2.531
O=C(Cn1ccc2ccccc21)N1CCC(Oc2cnccn2)CC1,-3.097,6.564,4.124,-25.14,-0.5998
CN(CC1(O)CCCN(c2ccccn2)C1)C(=O)Cc1ccsc1 (stereo unspecified),-0.332,2.114,3.784,-31.09,-0.09186
O=C(NCCn1nc(C2CCNC2)c2cccnc21)c1ccccn1 (stereo unspecified),-2.346,-,7.447,-1.583,8.33
COc1cccc(CNCc2c(C(C)C)nn(C)c2N(C)C)c1OC,17.94,12.84,3.422,-9.295,1.807
Cc1nc(CN2CCCC2Cn2cncn2)no1 (stereo unspecified),-20.26,7.95,0.5917,-16.85,-2.274
Cc1cc(CN2CC[C@H]3C[C@H](C(=O)N(C)C)O[C@@H]3C2)no1,-1.132,-,0.5464,-5.781,1.354
CCc1c(C)[nH]c(C(C)(C)N)nc1=O,4.3,-,7.937,-16.98,11.38
CCn1nc(C)cc1C(=O)NCc1nc(C)no1,-0.1382,-7.533,10.89,4.601,0.762
O=C(C1CCOCC1)N1CCc2ncc(CN3CCCCC3)n2CC1,-2.968,-27.77,9.804,-20.43,2.262
CCCC(O)CN1CC(C)(C)CN(C(=O)c2ccccc2)CC1=O (stereo unspecified),0.755,-3.795,2.312,8.498,3.676
CCc1nnsc1C(=O)N1CCCC1c1c(C)nn(C)c1OC (stereo unspecified),-3.707,16.32,-2.286,-55.44,-1.776
CC(=O)N1CCOCC2(CN(Cc3ccccn3)CCO2)C1.O=C(O)C(F)(F)F.O=C(O)C(F)(F)F (stereo unspecified),-,7.585,-,-,-
Cc1c(C(=O)N2CCC2)nnn1-c1ccc2ncccc2c1,-9.5,-6.832,3.867,-7.579,4.692
Cc1nc(C)c(C(=O)N2CCCc3c(F)cccc32)o1,-1.916,-15.49,10.3,5.314,6.345
CCOc1ccccc1C(=O)N1CC(=O)N(C2CCC2)CC(O)C1 (stereo unspecified),2.647,-40.75,8.989,10.15,4.69
CCN1CCN(C(=O)c2cccc(CN3CCOCC3)c2)CC1,-2.185,6.919,1.508,-8.297,4.198
O=C(C1CCCC1)N1CCCC(c2nc(O)cc(-c3ccncc3)n2)C1 (stereo unspecified),-3.921,2.408,5.319,4.669,3.428
Cc1nccc(-c2cccc(NCC(=O)N3CCNC3=O)c2)n1,12.49,-0.4394,4.545,-0.7428,6.344
COc1ccccc1CN1C(=O)O[C@@H]2CN(CC3CC3)C[C@@H]21,-4.166,-,-1.136,-31.02,0.1585
CCn1c(N)nc2cc(C(=O)NCCc3ccccc3F)cnc21,-3.856,-9.832,9.756,-5.276,4.413
CC(=O)N[C@@H]1CN(S(=O)(=O)c2ccc(Cl)cc2)C[C@H]1O,0.8091,17.96,4.887,8.236,1.465
Cc1cc(NC(C)c2nncn2C2CCCC2)n2nc(C)c(C)c2n1 (stereo unspecified),-1.885,3.285,4.103,-10.75,2.594
CC(C)n1ncc2cc(NC(=O)N3CCC(CO)CC3)cnc21,-14.43,1.563,4.678,-15.25,0.2241
O=C(CCc1cscn1)NS(=O)(=O)c1ccc2ccccc2c1,-10.02,-0.6397,2.439,-7.831,2.896
COC1COC2(CCN(Cc3ccc4ccccc4n3)CC2)C1 (stereo unspecified),-7.804,-,3.659,-4.369,-1.949
Cc1noc(CNC(=O)CN(C)c2nc3ccccc3s2)n1,0.4956,-0.1371,5.699,-21.69,5.939
CC(C)C1CN(C(=O)c2csc(CN(C)C)n2)CCC(=O)N1CC1CC1 (stereo unspecified),-1.704,12.21,4.124,-24.72,3.482
Cc1c(O)cccc1C(=O)N1CCCC2(C1)C(=O)N(C)c1ccccc12 (stereo unspecified),-26.65,20.49,0.9901,-6.512,2.045
CCOCCCNC(=O)C(C)n1cc(Br)cn1 (stereo unspecified),-7.818,17.01,0,-14.37,4.27
CC(=O)c1sc2nc3c(c(C(F)(F)F)c2c1N)CN(C(C)=O)CC3,-8.41,3.586,-16.1,13.89,4.305
OC1(CNCCSc2ccccn2)CCCNC1 (stereo unspecified),-9.036,-,-22.99,-13.04,4.483
CCN(CC)Cc1cnc2n1CCN(Cc1c(C)noc1C)CC2,13.62,-,1.961,-2.836,6.538
Cc1nc(C2(O)CCCNCC2)sc1CCOc1ccccc1F.Cl (stereo unspecified),-,17.11,-,-,-
COc1ccc(CN2CC[C@H](c3nc4cccc(C(N)=O)c4[nH]3)C2)cc1,-5.343,3.347,6.468,5.199,3.294
O=C(c1ccncc1F)N1CCCC(c2nccn2CC2CCC2)C1 (stereo unspecified),-0.6974,-17.76,0,2.251,13.33
NC(=O)CN1CCCN(C(=O)c2ccn(-c3cccc(F)c3)n2)CC1,0.534,-9.131,5.691,-1.63,7.188
Cc1cc(CNC(=O)CCc2ccc(S(N)(=O)=O)cc2)no1,6.577,-0.8348,3.175,-16.16,1.456
Cn1c(=O)[nH]c(=O)c2c1nc1n2CC(c2ccc(Br)cc2)O1 (stereo unspecified),19.89,-53.46,6.061,3.999,7.27
CCc1ccc(NC(=O)N2C[C@H]3C[C@H](C(=O)NC)[C@@H](C2)O3)cc1,-6.249,-,7.609,-7.573,3.661
Fc1cccc(N2CCOC3(CCCN(c4cnccn4)C3)C2)c1 (stereo unspecified),4.905,9.938,1.149,-14.99,-0.9582
CCc1nc(C2CCCN2C(=O)c2cc[nH]n2)no1 (stereo unspecified),-10.89,7.656,6.215,-12.58,-0.8249
CCCC(=O)N1CCOC2(COCCN(CC(=O)NC)C2)C1.O=C(O)C(F)(F)F (stereo unspecified),-,-1.63,-,-,-
O=C(c1cccnc1)N1CCC(c2nc(O)cc(-c3ccncc3)n2)C1 (stereo unspecified),8.179,-16.13,2.128,12.36,12.39
O=C(CSc1nc2c(cnn2CCO)c(=O)[nH]1)N1CCCCCC1,13.82,0.5473,5.785,-11.3,-1.194
Cc1noc(C)c1CN1CC[C@H]2C[C@@H](c3nccs3)O[C@@H]2C1,3.135,-,-1.657,-32.13,0.8732
COCCNS(=O)(=O)c1ccc(Cl)c(C(=O)N(C)Cc2ccsc2)c1,0.5166,4.556,4.891,-22.68,5.577
CCC(C)NC(=O)c1nnn(-c2ccc(Br)cc2)n1 (stereo unspecified),-14.22,-0.8203,6,-36.61,-0.1518
CN(Cc1cn2c(n1)CN(CC1CCOC1)CC2)Cc1ccco1.O=C(O)C(F)(F)F.O=C(O)C(F)(F)F (stereo unspecified),-,-1.214,-,-,-
CN1CCC2(Cc3ccccc3CN(C(=O)c3ccc(Cl)cc3)C2)C1 (stereo unspecified),-10.69,19.96,5.325,-40.32,-2.754

For reference, 6 entries once more:

{"structure": "O=C(CSc1nc2c(cnn2CCO)c(=O)[nH]1)N1CCCCCC1", "ClpP1P2": 13.82, "Toxoplasma": 0.5473, "TcHisRS": 5.785, "Pks13 thioesterase": -11.3, "PfKRS1": -1.194}
{"structure": "Cc1noc(CNC(=O)CN(C)c2nc3ccccc3s2)n1", "ClpP1P2": 0.4956, "Toxoplasma": -0.1371, "TcHisRS": 5.699, "Pks13 thioesterase": -21.69, "PfKRS1": 5.939}
{"structure": "OC1(CNCCSc2ccccn2)CCCNC1", "stereo": "stereo unspecified", "ClpP1P2": -9.036, "TcHisRS": -22.99, "Pks13 thioesterase": -13.04, "PfKRS1": 4.483}
{"structure": "CC(C)n1ncc2cc(NC(=O)N3CCC(CO)CC3)cnc21", "ClpP1P2": -14.43, "Toxoplasma": 1.563, "TcHisRS": 4.678, "Pks13 thioesterase": -15.25, "PfKRS1": 0.2241}
{"structure": "Fc1cccc(N2CCOC3(CCCN(c4cnccn4)C3)C2)c1", "stereo": "stereo unspecified", "ClpP1P2": 4.905, "Toxoplasma": 9.938, "TcHisRS": 1.149, "Pks13 thioesterase": -14.99, "PfKRS1": -0.9582}
{"structure": "O=C(c1cccnc1)N1CCC(c2nc(O)cc(-c3ccncc3)n2)C1", "stereo": "stereo unspecified", "ClpP1P2": 8.179, "Toxoplasma": -16.13, "TcHisRS": 2.128, "Pks13 thioesterase": 12.36, "PfKRS1": 12.39}

The values are deposited in ChEMBL (CHEMBL3988442, “University of Dundee, Small-Polar-MMV Screening Library” (2021)).